From US9603879B2, “Bacillus bacteria for use in treating and preventing infection in aquatic animals” (Auburn University, priority 2011, dated 2017)
Some of these results come from one statement about several compounds together.

System: Bacillus strains AP79, AP193L, and AB01
Assay: Antibiotic susceptibility, disc diffusion test
Format: cell-based
Conditions: Mueller-Hinton agar, 18 h at 37° C.

gentamicin
Diameter of inhibition zone of antibiotic discs on the Bacillus strains: 20-25 mm
